We go through 1 molecule from ChEMBL document CHEMBL1129258, “Synthesis and structure-activity relationships of 2-pyridones: a novel series of potent DNA gyrase inhibitors as antibacterial agents” (J Med Chem, 1996).

Sequences of proteins named here, by UniProt entry; tags and fusion partners are left off.
UniProt P0AES4, whole entry, looked up: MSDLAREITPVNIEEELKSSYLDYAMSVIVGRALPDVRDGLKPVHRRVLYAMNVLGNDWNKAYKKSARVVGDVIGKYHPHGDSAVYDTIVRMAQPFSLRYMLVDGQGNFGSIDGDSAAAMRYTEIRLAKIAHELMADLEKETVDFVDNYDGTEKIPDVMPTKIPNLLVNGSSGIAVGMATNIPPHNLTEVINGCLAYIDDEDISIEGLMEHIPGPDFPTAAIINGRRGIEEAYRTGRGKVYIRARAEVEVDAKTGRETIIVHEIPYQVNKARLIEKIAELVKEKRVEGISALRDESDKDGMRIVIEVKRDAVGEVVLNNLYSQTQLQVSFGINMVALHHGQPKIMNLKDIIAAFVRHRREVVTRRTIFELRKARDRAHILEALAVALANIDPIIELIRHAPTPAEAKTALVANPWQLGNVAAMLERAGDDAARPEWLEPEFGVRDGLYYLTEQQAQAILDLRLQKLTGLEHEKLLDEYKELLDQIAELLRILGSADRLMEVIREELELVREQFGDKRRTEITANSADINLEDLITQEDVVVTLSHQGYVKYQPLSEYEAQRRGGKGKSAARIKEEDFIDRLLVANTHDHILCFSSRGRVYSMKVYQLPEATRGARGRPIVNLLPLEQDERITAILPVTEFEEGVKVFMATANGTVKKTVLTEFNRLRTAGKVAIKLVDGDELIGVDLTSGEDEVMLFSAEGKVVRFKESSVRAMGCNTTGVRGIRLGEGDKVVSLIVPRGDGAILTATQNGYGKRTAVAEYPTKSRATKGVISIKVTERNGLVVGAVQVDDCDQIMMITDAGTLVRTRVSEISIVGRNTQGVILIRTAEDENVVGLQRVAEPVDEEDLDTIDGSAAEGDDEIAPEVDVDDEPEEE

In assay [1] the target is T1, DNA gyrase (Escherichia coli) (UniProt P0AES6+P0AES4). Nature of the assay: In vivo efficacy against Escherichia coli JUHL by subcutaneous administration. To be noted: Escherichia coli K-12. In kind it is functional, organism-based.
Assay [2] addresses T1, DNA gyrase (Escherichia coli). The assay is described as follows: In vivo efficacy against Escherichia coli JUHL after oral administration. The note with it: Escherichia coli K-12. In kind it is functional, organism-based.

The term ED50 denotes the dose that gives a 50% effect, or the effect in half of the subjects. Lower therefore signals greater potency.

In the case of `Cl.O=C(O)c1cn(C2CC2)c2cc(N3CCNCC3)c(F)cc2c1=O` [CIPROFLOXACIN HYDROCHLORIDE], the ED50 in assay [1] was 0.1 mg/kg; in assay [2] it was 1 mg/kg.
